Among the data in article doi:10.1101/2023.06.27.545208 are binding values, retold here.

This test concerns the target T1, epitope-tagged CTDNEP1 (human) (UniProt O95476).
T1 sequence: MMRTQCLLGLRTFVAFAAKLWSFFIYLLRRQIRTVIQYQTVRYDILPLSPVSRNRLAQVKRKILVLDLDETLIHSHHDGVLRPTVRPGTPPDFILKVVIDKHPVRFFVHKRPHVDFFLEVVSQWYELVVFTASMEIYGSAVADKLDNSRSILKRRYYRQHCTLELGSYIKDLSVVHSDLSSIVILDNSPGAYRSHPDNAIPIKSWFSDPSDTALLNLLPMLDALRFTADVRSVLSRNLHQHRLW
Kind of test: co-IP.

No constants are given. Whether binding was seen depends on the method and setting. In cells and extracts the contact can be indirect. Some binding calls cover weakened binding; strength is not graded here. Where a sequence is shown, tags or fusion partners need not be part of it.

B1: epitope-tagged TMEM255A (protein, UniProt Q5JRV8 1-349)
chain: MHQSLTQQRSSDMSLPDSMGAFNRRKRNSIYVTVTLLIVSVLILTVGLAATTRTQNVTVGGYYPGVILGFGSFLGIIGSNLIENKRQMLVASIVFISFGVIAAFCCAIVDGVFAARHIDLKPLYANRCHYVPKTSQKEAEEVISSSTKNSPSTRVMRNLTQAAREVNCPHLSREFCTPRIRGNTCFCCDLYNCGNRVEITGGYYEYIDVSSCQDIIHLYHLLWSATILNIVGLFLGIITAAVLGGFKDMNPTLPALNCSVENTHPTVSYYAHPQVASYNTYYHSPPHLPPYSAYDFQHSGVFPSSPPSGLSDEPQSASPSPSYMWSSSAPPRYSPPYYPPFEKPPPYSP
For B1, the binding entry is “binds”.
